Experimental data taken from publication PMC11140114.

The chains behind the UniProt entries cited, without tags or fusion partners.
UniProt O00429: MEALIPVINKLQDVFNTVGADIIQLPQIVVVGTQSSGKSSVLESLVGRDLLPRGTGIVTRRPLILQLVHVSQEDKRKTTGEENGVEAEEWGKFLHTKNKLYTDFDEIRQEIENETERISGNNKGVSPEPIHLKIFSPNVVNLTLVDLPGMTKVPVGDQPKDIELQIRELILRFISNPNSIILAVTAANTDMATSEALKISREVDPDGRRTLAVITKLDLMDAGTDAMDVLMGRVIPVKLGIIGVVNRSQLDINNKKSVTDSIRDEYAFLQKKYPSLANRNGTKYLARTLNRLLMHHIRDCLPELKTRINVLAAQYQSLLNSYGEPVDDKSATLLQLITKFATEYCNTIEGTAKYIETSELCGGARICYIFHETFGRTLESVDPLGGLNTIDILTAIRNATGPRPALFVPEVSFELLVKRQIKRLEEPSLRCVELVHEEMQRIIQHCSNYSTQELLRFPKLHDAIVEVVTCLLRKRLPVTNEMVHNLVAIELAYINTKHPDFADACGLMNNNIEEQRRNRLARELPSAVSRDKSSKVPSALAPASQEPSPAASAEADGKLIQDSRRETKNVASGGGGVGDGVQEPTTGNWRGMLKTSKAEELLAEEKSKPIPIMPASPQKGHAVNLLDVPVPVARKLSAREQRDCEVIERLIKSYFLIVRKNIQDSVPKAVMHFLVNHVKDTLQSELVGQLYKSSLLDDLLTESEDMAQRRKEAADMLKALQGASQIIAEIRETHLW
UniProt Q9UBN7: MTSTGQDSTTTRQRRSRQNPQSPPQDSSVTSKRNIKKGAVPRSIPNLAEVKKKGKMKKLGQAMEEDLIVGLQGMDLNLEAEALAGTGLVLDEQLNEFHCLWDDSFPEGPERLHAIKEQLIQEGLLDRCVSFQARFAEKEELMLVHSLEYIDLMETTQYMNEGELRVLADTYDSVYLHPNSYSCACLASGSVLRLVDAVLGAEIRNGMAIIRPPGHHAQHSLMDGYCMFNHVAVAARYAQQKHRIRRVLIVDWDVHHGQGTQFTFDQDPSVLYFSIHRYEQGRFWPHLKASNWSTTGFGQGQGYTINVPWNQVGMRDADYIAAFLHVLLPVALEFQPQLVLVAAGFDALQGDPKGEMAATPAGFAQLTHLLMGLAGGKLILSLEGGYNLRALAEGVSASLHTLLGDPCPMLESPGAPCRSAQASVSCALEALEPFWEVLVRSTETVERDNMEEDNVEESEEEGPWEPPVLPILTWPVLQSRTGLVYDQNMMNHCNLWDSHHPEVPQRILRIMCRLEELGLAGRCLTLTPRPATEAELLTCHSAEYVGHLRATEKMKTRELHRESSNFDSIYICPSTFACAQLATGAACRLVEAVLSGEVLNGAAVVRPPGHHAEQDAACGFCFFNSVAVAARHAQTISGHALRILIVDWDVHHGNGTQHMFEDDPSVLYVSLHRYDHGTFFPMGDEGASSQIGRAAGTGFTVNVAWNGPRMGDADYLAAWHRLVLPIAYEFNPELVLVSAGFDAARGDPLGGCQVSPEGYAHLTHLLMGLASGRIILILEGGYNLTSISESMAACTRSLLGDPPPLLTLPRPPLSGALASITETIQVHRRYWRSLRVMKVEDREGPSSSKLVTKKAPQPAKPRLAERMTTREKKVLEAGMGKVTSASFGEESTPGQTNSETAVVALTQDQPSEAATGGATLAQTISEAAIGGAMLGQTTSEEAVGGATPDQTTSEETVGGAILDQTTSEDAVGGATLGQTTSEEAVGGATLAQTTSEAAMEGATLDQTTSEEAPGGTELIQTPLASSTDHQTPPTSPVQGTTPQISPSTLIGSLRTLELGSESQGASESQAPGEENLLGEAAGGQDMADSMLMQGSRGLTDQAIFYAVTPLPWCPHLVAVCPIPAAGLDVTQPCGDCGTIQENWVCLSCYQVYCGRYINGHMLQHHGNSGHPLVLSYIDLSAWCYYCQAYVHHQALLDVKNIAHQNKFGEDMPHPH

Biological target: endogenous Drp1 (human (endogenous in HEK293, HeLa, U2OS)) (UniProt O00429)
Test: affinity purification with mass spectrometry; proteins enriched together with endogenous Drp1 on the D7 and D63 nanotraps against GFP-Trap, soluble protein fraction of HEK293 cells; multi-volcano analysis, class A FDR 0.01, class B FDR 0.05

binding: binds
Substance: Histone deacetylase 6 (from UniProt Q9UBN7 1-1215) (enzyme)

These are yes or no findings as the source states them, for the method shown. In cells and extracts the contact can be indirect. Here binding means that the protein was enriched with, or labelled near, the bait; the list need not be complete.
